The source of these data is PMC9576733, “Cryo-EM structures of the translocational binary toxin complex CDTa-bound CDTb-pore from Clostridioides difficile” (Nature Communications, 2022).

Amino acid sequences for entries named in this document (tags omitted). Residues count along the entry.
UniProt O32739, residues 214-876: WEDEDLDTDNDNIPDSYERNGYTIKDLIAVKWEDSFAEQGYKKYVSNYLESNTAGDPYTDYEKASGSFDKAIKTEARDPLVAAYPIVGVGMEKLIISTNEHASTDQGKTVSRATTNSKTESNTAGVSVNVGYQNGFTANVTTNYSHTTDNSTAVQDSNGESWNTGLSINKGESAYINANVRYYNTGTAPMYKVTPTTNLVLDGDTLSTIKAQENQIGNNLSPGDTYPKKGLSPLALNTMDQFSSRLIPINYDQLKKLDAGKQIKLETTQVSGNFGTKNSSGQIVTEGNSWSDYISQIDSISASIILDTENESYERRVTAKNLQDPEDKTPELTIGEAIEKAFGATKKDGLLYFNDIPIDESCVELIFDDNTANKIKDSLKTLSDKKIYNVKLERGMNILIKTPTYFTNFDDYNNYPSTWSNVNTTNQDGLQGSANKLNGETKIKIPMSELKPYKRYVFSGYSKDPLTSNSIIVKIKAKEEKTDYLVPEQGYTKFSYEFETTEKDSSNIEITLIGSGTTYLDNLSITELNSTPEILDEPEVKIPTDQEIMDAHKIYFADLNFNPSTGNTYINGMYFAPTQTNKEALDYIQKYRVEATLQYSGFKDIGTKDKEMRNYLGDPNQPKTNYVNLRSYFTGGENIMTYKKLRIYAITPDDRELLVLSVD

These are yes or no findings as the source states them, for the method shown. Some results given as binding are weak or reduced against the parent protein; the word gives no strength.

This assay has as its target CDTb-pore, wild type (chymotrypsin-activated CDTb oligomer) (Clostridioides difficile) (UniProt O32739). In words: density gradient ultracentrifugation; data not shown; with five-fold more LMNG and without LMNG; di-heptamer and heptamer formation; both purified.

Consider “CDTb-pore, wild type (chymotrypsin-activated CDTb oligomer) (from UniProt O32739 214-876) (complex)”, for which the binding result is “binds”.
